Measured values published in PubChem BioAssay (Tox21).
Values joined by “and” are separate entries in the source; they are usually repeats but may differ in a detail not shown here. Equal values may be shown once. This list was built around the results that the source calls inconclusive (neither active nor inactive); the mix of calls is not that of the screen. A potency beside an inconclusive call is a rough fit, not a confirmed value. Active and inactive are the calls of the source. Calls follow the shape of the full dose curve.

Amino acid sequences for entries named in this document (tags omitted). A change or cut given only in a name is not applied to a line headed by its entry.
UniProt P19793: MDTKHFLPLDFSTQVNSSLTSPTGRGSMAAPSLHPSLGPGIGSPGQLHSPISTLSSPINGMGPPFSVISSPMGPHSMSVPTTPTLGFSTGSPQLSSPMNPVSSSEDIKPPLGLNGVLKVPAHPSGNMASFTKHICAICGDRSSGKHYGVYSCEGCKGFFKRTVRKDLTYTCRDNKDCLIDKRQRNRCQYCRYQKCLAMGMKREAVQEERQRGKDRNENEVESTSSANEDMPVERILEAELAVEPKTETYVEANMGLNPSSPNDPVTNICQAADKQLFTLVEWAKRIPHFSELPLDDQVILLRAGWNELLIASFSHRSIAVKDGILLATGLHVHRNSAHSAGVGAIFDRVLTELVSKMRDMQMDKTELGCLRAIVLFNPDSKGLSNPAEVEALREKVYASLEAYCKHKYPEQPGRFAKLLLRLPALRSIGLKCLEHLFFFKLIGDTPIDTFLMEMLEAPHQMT

target: Retinoic acid receptor RXR-alpha (Homo sapiens) (UniProt P19793); assay: qHTS assay to identify small molecule agonists of the RXR signaling pathway (AID 1159527); settings: HEK293T RXRa-UAS-bla, beta-lactamase ratio, 16 h; activation: at 76.8 µM (top of the series) unless noted; also: nearly all actives have a fitted effect of over 35% in size
Summary of the method: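 Agonist mode; 9-cis retinoic acid positive control. HEK 293T UAS-bla reporter cells, 2% charcoal-stripped FBS, 16 hr compound exposure at 37 C/5% CO2. LiveBLAzer B/G FRET substrate 2 hr RT; ex 405, em 460/530 nm.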
% is scaled to controls: 0 for no effect and ±100 for the full control effect; potency is read from the fitted curve at half-maximal effect.

Question: For CN1[C@@H]2CC[C@H]1CC(OC(=O)C(CO)c1ccccc1)C2 (some centres not stated), which Potency is on record?
Answer: inconclusive: 17.4 µM [rising, partial curve, poor fit]

Question: For COc1cc(/C=C/C(N)=O)cc(OC)c1OC, which “activation” value is on record?
Answer: inactive: 7.78% [at 35.3 µM]

Question: C=C(C)C(=O)O[C@H]1C[C@@H]2CC[C@@]1(C)C2(C)C was tested. Which Potency did it give?
Answer: inconclusive: 1.94 µM [inhibitor, full curve] and inactive

Question: For CCCCCCCCCCCCCCOS(=O)(=O)O, which Potency is on record?
Answer: inconclusive: 38.9 µM [inhibitor, partial curve]

Question: Which “activation” value does the source give for CC(C)O.CC(C)O.CCOC(=O)/C=C(\C)O.CCOC(=O)/C=C(\C)O.[Ti] here?
Answer: inactive: -15.1%

Question: C=CC(O)CCCCC (configuration not stated) was tested. Which activation did it give?
Answer: inconclusive: 15.9%

Question: How did the Potency turn out when CCCOc1ccccc1-c1nc2n[nH]nc2c(=O)[nH]1 was run?
Answer: inconclusive: 21.3 µM [activator, partial curve, poor fit]

Question: How did the activation turn out when O=[N+]([O-])c1ccc(O)cc1C(F)(F)F was run?
Answer: inconclusive: -17.2%

Question: For CCCCCCCCSCc1cc(C)c(O)c(CSCCCCCCCC)c1, which Potency is on record?
Answer: inconclusive: 61.6 µM [inhibitor, single point]

Question: With Oc1ccc(C2(c3ccc(O)c(C4CCCCC4)c3)CCCCC2)cc1C1CCCCC1 as the molecule, how does the Potency read?
Answer: inconclusive: 21.9 µM [cytotoxic, full curve]

Question: Which Potency does the source give for CCCCCCCCCCCCCC(=O)O here?
Answer: inactive and inconclusive: 34.7 µM [fluorescent, partial curve, poor fit]

Question: With CSc1ccc(O)cc1C as the molecule, how does the Potency read?
Answer: inconclusive: 43.6 µM [inhibitor, partial curve]
